# Data: patent US11541084B2, “Method of promoting bone regrowth” (GENMONT BIOTECH INC., priority 2017, dated 2023)
# System: ovariectomized (OVX) mice
# Experiment: Bone tissue analysis by micro computed tomography of the femur in the osteoporosis mouse model
# Type: in vivo, mice (ICR female)
# Conditions: right femur, tube feed for 28 days, mean ±SD, * p<0.05, ** p<0.01, disease group OVX+H2O 0.344 ± 0.04, sham control 0.502 ± 0.04
# Procedure: Experiment 1: Bone tissue analysis
# (1) preparation of viable bacteria: Inoculating the Lactobacillus plantarum GMNL-662 from a frozen tube to 1 ml of MRS broth, and standing under 37° C. for aerobically incubating for 20 hours. The next day, adding 15 μl culture solution into 1.5 ml of MRS broth (1% secondary activation), and then standing under 37° C. for aerobically incubating for 20 hours. Estimating the bacteria number by using OD 600 to adjust the bacteria concentration to 8×10^7 CFU/ml.
# (2) preparation of dead bacteria: Inoculating the Lactobacillus Plantarum strain GMNL-662 from a frozen tube to 1 ml of MRS broth, and standing under 37° C. for aerobically incubating for 20 hours. The next day, adding 15 μl culture solution into 1.5 ml of MRS broth (1% secondary activation), and then standing under 37° C. for aerobically incubating for 20 hours. […]
# The backbone of the right femur far from the end was taken a computer tomography by a micro computed tomography (SkyScan 1076, Kontizh, Belgium, with resolution of 18 μm), and the trabecular bone volume ratio (i.e. bone volume/tissue volume) is analyzed by a software. The analyzed position was selected to include the area of 100 pieces under the growth plate excluding cortical bone. […] The obtained data in the experiments were analyzed with two-way analysis of variance, and executed T-test statistical analysis. […]
smiles,measurement,value
"NCCCC(O)(P(=O)(O)O)P(=O)(O)O [Alendronate, reference compound]","Femur bone mineral density (BMD, excluding cortical bone)",0.426 ± 0.02* g/cm^3
